# Small-molecule microarray binding calls

From ROBIN, a set of small-molecule microarray screens (doi:10.1002/anie.202211358).

Targets (5′ to 3′):
SAM-II: SAM-II riboswitch RNA pseudoknot, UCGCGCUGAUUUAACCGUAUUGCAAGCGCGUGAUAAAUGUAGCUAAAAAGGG. About 21,000 compounds screened, about 200 hits.
TPP: TPP riboswitch RNA three-way junction, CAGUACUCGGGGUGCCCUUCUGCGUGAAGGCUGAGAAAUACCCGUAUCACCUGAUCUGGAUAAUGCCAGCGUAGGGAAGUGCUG. About 24,000 compounds screened, about 160 hits.
PreQ1: PreQ1 riboswitch RNA pseudoknot, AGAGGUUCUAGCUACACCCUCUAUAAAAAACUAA. From B. subtilis. About 24,000 compounds screened, about 170 hits.

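Compounds were printed on reactive glass slides in duplicate spots, a dye-labelled oligonucleotide was laid over them, and the fluorescence left after washing was read. For the PreQ1, TPP and SAM-II riboswitches the laboratory earlier reported (doi:10.1038/s41467-019-09493-3) 1 µM RNA, 2 h, and a rule that included a mean Z-score above 3 (spot signal-to-noise against the whole library), a score well above that on a control array, and duplicate spots agreeing (coefficient of variation under 100). The data file gives only the calls; its cut-offs may differ, and compounds hitting several targets are kept. These are primary screening calls, not affinities; a compound without a hit may have attached poorly or may still bind in solution.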 A compound is marked hit if it was called a hit and none if it was screened but was not. This is an unselected part of the compounds tested.

SMILES: O=C1CC(NCc2ccc3c(c2)OCO3)C(=O)N1c1ccccc1 (stereo not given)
SAM-II: none
TPP: none
PreQ1: none

SMILES: CN(C)S(=O)(=O)Nc1cccc(Br)c1
SAM-II: none
TPP: none
PreQ1: none

SMILES: OCCCc1nc2n(n1)C(c1ccccc1)C=C(c1ccccc1)N2 (stereo not given)
SAM-II: none
TPP: none
PreQ1: none

SMILES: Clc1ccccc1Nc1nc2ccccc2o1
SAM-II: none
TPP: none
PreQ1: none

SMILES: Cc1nc(CNS(=O)(=O)c2ccc(C(=O)N[C@H]3CCNC3)cc2)no1
SAM-II: none
TPP: none
PreQ1: none

SMILES: CCCC(=O)OCCCNc1nc(-c2ccc(Cl)cc2)nc2ccccc12
SAM-II: none
TPP: none
PreQ1: none

SMILES: NC(=O)N/N=C1\CC2CC1C1C=CCC21 (stereo not given)
SAM-II: none
TPP: none
PreQ1: none

SMILES: CN1C[C@H](NC(=O)c2ccc(NCc3nc4ccccc4n3C)cc2)C[C@H]1CO
SAM-II: none
TPP: none
PreQ1: none

SMILES: COCCCNc1nc2c(c(=O)n(C)c(=O)n2C)n1Cc1ccc(Cl)cc1
SAM-II: none
TPP: none
PreQ1: none

SMILES: CCNC(=O)[C@@H]1C[C@@H](N)CN1C(=O)c1cc2cc(Cl)cc(OC)c2o1
SAM-II: none
TPP: none
PreQ1: none

SMILES: Cc1cc2ncn(CC(O)COc3ccc(Cl)cc3)c2cc1C (stereo not given)
SAM-II: none
TPP: none
PreQ1: none

SMILES: Cc1cnc(-c2cnc(NCCNc3ccc(C#N)cn3)nc2-c2ccc(Cl)cc2Cl)[nH]1
SAM-II: none
TPP: none
PreQ1: none

SMILES: OC[C@H]1CN(Cc2ccc(OC(F)F)cc2)C[C@H]1CN1CCCCCC1
SAM-II: none
TPP: none
PreQ1: none

SMILES: CO[C@@H]1[C@@H](O)[C@H](O)[C@@H](n2c3c(Cl)cccc3c3c4c(c5c6cccc(Cl)c6[nH]c5c32)C(=O)NC4=O)O[C@@H]1CO
SAM-II: none
TPP: none
PreQ1: none

SMILES: CC(=O)N1CCN(C(=O)c2cncnc2C)CC(O)C1 (stereo not given)
SAM-II: none
TPP: none
PreQ1: none

SMILES: CN(CCC1CCCCO1)c1ccnc(C(=O)NCCO)c1 (stereo not given)
SAM-II: none
TPP: none
PreQ1: none

SMILES: COC(=O)c1ccc(Nc2cc(C)nc3ccc(Cl)cc23)cc1
SAM-II: none
TPP: none
PreQ1: none

SMILES: COc1ccc(-c2nc3[nH]cnn3c2Nc2ccc(C(C)C)cc2)cc1
SAM-II: none
TPP: none
PreQ1: none

SMILES: C=C(C)CCC(C)NCC(=O)Nc1ccccc1C (stereo not given)
SAM-II: none
TPP: none
PreQ1: none

SMILES: CCCc1nc(N)c(C#N)c(-c2ccco2)c1CC
SAM-II: none
TPP: none
PreQ1: none

SMILES: N=C(N)N/N=C/c1c(Cl)cccc1Cl
SAM-II: none
TPP: none
PreQ1: none

Once more, the final 2:

SMILES,SAM-II,TPP,PreQ1
CCCc1nc(N)c(C#N)c(-c2ccco2)c1CC,none,none,none
N=C(N)N/N=C/c1c(Cl)cccc1Cl,none,none,none